From publication PMC10193013, “Nonstructural N- and C-tails of Dbp2 confer the protein full helicase activities” (The Journal of Biological Chemistry, 2023) come the findings set out here.

By UniProt entry, the sequences of proteins in these tests, tags left out. Residues count along the entry.
UniProt P24783, whole entry E80A/H81A: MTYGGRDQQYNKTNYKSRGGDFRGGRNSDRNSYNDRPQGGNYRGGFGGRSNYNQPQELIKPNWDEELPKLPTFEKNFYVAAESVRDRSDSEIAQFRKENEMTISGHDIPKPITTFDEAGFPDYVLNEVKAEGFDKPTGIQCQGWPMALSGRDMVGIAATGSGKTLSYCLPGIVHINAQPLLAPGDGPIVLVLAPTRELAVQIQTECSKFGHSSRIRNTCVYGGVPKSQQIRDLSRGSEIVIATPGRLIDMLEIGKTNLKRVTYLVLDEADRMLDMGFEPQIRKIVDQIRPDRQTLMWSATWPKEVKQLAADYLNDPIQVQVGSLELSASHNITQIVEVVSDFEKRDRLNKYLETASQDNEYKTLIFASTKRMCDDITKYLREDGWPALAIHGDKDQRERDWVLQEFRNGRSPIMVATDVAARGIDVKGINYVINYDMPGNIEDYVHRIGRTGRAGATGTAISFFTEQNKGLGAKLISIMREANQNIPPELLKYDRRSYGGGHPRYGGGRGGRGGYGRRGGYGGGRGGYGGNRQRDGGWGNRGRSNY
UniProt P24783, whole entry F73A: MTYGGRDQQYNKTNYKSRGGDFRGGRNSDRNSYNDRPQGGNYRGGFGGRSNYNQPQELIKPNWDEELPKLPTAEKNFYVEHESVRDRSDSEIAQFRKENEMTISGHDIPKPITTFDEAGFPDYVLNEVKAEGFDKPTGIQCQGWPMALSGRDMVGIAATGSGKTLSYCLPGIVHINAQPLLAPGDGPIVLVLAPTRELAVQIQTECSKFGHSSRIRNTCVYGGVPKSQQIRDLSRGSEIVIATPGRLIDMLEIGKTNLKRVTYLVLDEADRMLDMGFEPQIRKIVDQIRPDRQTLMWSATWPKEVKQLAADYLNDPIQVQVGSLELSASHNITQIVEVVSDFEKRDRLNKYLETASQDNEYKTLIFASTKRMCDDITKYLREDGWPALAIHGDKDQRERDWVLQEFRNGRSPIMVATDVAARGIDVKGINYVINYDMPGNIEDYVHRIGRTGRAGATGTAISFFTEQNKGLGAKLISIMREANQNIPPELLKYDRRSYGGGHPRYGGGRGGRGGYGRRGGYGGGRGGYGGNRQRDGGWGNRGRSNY
UniProt P24783, whole entry F77A/Y78A: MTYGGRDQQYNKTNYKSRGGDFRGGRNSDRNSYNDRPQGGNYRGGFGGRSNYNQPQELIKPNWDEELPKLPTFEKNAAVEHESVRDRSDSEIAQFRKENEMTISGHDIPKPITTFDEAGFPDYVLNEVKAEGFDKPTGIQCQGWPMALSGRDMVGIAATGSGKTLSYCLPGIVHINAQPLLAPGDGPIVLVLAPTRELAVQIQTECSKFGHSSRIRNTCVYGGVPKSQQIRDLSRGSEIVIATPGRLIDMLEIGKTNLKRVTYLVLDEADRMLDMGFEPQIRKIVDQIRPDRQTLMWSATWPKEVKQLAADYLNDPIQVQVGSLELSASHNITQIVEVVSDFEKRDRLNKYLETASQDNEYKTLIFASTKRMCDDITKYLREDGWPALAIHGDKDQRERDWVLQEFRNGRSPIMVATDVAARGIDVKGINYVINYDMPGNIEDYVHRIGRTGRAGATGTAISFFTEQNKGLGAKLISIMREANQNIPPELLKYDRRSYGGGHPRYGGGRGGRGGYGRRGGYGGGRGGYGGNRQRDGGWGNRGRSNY
UniProt P24783, whole entry Y78E: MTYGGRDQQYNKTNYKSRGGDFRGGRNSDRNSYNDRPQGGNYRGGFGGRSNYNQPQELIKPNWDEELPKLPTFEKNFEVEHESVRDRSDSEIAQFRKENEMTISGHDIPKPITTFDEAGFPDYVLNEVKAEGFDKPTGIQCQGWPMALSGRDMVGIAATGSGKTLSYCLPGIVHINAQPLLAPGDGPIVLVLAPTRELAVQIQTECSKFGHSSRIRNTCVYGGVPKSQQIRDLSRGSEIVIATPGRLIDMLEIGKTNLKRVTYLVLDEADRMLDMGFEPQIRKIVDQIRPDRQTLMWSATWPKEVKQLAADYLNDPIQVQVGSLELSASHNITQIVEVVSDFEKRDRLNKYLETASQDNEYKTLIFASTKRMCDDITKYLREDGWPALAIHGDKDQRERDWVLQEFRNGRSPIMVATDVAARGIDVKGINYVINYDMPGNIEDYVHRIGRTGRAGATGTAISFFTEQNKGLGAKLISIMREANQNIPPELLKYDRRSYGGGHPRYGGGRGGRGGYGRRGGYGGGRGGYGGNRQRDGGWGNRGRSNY
UniProt P24783, whole entry Y78A: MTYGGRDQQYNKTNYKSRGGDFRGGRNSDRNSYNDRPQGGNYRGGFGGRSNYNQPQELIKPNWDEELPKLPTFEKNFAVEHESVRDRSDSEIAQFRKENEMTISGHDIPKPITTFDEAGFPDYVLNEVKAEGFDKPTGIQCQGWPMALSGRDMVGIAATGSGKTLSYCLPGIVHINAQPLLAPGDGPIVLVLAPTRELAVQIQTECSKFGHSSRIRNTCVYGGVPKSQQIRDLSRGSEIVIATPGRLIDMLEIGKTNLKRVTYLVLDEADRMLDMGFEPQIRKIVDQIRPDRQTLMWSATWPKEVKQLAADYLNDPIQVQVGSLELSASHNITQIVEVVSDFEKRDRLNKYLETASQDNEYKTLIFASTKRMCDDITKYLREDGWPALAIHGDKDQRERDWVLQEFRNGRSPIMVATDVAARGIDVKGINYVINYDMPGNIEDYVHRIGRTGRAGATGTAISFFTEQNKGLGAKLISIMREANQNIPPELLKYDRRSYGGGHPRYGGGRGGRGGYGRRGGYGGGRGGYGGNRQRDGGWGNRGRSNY
UniProt P24783, 1-496: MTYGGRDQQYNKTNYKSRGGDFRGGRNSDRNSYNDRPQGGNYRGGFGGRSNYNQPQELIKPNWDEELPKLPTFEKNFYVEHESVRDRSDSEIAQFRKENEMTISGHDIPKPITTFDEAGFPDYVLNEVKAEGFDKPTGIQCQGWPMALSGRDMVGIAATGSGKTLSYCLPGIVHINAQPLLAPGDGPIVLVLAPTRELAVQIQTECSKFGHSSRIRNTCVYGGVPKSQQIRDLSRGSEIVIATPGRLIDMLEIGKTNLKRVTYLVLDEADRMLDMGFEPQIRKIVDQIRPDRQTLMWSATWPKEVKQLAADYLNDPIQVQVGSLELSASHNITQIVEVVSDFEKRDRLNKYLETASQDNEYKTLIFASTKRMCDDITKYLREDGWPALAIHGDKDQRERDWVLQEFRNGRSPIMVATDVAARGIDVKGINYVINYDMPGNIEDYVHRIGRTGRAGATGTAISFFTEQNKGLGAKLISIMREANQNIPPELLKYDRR
UniProt P24783, 53-546: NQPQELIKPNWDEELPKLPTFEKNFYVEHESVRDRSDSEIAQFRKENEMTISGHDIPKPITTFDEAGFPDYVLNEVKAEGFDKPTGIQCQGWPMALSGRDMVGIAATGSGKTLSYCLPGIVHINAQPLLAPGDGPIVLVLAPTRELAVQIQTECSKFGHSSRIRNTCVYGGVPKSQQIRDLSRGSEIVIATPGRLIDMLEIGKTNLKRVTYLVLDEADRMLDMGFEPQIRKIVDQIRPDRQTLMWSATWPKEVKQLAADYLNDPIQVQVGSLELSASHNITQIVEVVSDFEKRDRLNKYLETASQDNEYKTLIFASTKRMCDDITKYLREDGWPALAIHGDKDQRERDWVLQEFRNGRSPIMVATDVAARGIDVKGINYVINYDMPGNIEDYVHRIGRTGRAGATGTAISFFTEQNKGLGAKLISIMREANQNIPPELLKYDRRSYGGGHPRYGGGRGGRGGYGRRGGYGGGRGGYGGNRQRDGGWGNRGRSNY

For some assays here: Negatives hold for the conditions tested. For some assays here: At least one verdict rests on a figure or table, not on a statement of the authors. For some assays here: Construct, isoform or probe ends are uncertain for at least one entry.

Series [1] addresses Dbp2 WT (Saccharomyces cerevisiae) (UniProt P24783). As to the kind of experiment: fluorescence anisotropy. The following applies: Anisotropy: 25 mM Tris-HCl pH 7.5, 20 mM NaCl/30 mM KCl, 2 mM MgCl2, 1 mM DTT, 5 nM labelled nucleic acid, 25 C, 5 min; recombinant protein; residues 1-546; protein details: His6-MBP removed by TEV; DNA:RNA hybrid. A general note: Fluorescence polarisation rises when a labelled molecule tumbles more slowly, as on binding a larger partner.

The target of series [2] is Dbp2 E80A/H81A (Saccharomyces cerevisiae) (UniProt P24783). As to the kind of experiment: fluorescence anisotropy. As to conditions: Anisotropy: 25 mM Tris-HCl pH 7.5, 20 mM NaCl/30 mM KCl, 2 mM MgCl2, 1 mM DTT, 5 nM labelled nucleic acid, 25 C, 5 min; recombinant protein; residues 1-546; DNA:RNA hybrid.
The target in series [3] is Dbp2 F73A (Saccharomyces cerevisiae) (UniProt P24783). Briefly: fluorescence anisotropy. The following applies: Anisotropy: 25 mM Tris-HCl pH 7.5, 20 mM NaCl/30 mM KCl, 2 mM MgCl2, 1 mM DTT, 5 nM labelled nucleic acid, 25 C, 5 min; recombinant protein; residues 1-546; DNA:RNA hybrid.
Series [4] addresses Dbp2 F77A/Y78A (Saccharomyces cerevisiae) (UniProt P24783). As to the kind of experiment: fluorescence anisotropy. The following applies: Anisotropy: 25 mM Tris-HCl pH 7.5, 20 mM NaCl/30 mM KCl, 2 mM MgCl2, 1 mM DTT, 5 nM labelled nucleic acid, 25 C, 5 min; recombinant protein; residues 1-546; DNA:RNA hybrid.
The target in series [5] is Dbp2 Y78E (Saccharomyces cerevisiae) (UniProt P24783). Briefly: fluorescence anisotropy. As to conditions: Anisotropy: 25 mM Tris-HCl pH 7.5, 20 mM NaCl/30 mM KCl, 2 mM MgCl2, 1 mM DTT, 5 nM labelled nucleic acid, 25 C, 5 min; recombinant protein; residues 1-546; DNA:RNA hybrid.
Series [6] deals with Dbp2 Y78A (Saccharomyces cerevisiae) (UniProt P24783). Briefly: fluorescence anisotropy. The following applies: Anisotropy: 25 mM Tris-HCl pH 7.5, 20 mM NaCl/30 mM KCl, 2 mM MgCl2, 1 mM DTT, 5 nM labelled nucleic acid, 25 C, 5 min; recombinant protein; residues 1-546; DNA:RNA hybrid.
Series [7] has as its target Dbp2 1-496 (Saccharomyces cerevisiae) (UniProt P24783). As to the kind of experiment: EMSA. The following applies: single band; EMSA: 25 mM Tris-HCl pH 7.5, 30 mM KCl, 2 mM MgCl2; recombinant protein; residues 1-496; protein details: His6-MBP removed by TEV; label: 3' FAM. Background: A gel shift assay detects complexes by their altered migration in electrophoresis.
Series [8] deals with Dbp2 53-546 (Saccharomyces cerevisiae) (UniProt P24783). As to the kind of experiment: EMSA. The following applies: two bands; EMSA: 25 mM Tris-HCl pH 7.5, 30 mM KCl, 2 mM MgCl2; recombinant protein; residues 53-546; protein details: His6-MBP removed by TEV; label: 3' FAM.

As a reminder, the Kd is a measure of binding affinity in units of concentration. For the sequence “CGTCGAGCAGAG / UUUUUUUUUUCUCUGCUCGACG [R/D-5'Oh]”, the equilibrium dissociation constant (Kd) in series [1] came to 0.0723 µM; in series [2], 0.116 µM; in series [5], 0.281 µM. Moreover, the binding result in series [3], in series [4] and in series [6] was “no binding” each time.
On to GGGUUAGGGUUAGGGUUAGGG [R-G4Tel], for which the binding result in series [7] and in series [8] was “binds” throughout.
Take “GGGUUAGGGUUAGGGUUAGGGUUUUUUUUUUUU [5'R-G4Tel]”: the binding result in series [7] and in series [8] was “binds” in each case.
UUUUUUUUUUCUCUGCUCGACG [R-S22]: the binding result in series [7] and in series [8] was “binds” in each case.
Take “UUUUUUUUUUUUGGGUUAGGGUUAGGGUUAGGG [3'R-G4Tel]”: the binding result in series [7] and in series [8] was “binds” each time.
